# Reference: PMC4651308
# Chains of the proteins cited; added tags and fusions are not shown. Lines headed by an entry give the natural chain unless they say otherwise; changes in a name come on top.
# UniProt O75030: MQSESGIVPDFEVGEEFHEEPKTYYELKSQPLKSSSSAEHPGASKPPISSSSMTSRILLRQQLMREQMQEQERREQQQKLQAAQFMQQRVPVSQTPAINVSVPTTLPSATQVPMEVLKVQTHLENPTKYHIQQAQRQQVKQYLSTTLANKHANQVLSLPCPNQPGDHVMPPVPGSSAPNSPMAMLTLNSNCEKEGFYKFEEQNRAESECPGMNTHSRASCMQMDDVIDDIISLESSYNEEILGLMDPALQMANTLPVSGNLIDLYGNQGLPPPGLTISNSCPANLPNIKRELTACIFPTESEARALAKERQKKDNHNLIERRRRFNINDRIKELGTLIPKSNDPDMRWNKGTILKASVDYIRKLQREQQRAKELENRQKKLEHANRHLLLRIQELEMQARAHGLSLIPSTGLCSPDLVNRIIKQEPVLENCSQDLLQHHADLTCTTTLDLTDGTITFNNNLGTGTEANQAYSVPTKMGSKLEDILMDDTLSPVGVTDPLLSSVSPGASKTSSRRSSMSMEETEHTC
# Results are given in words; binding and its absence hold for the method and conditions named. In cells and extracts the contact can be indirect. A result given as binding can be weak or reduced; the word gives no strength.
# Biological target: Flag-tagged full-length MITF (microphthalmia-associated transcription factor) (human) (UniProt O75030)
# Assay: co-IP; HeLa cells co-transfected with pcDNA3.1-LEF-1-HA and pCMV-3×Flag-MITF; lysis in RIPA buffer (150 mM NaCl, 50 mM Tris pH 8.0, 1% Nonidet P-40, 2 mM EDTA, 10% glycerol); IP with anti-Flag M2 antibody and protein G agarose overnight at 4°C, normal mouse IgG as negative control; blot with …
substance,measurement,value
HA-tagged full-length LEF-1 (lymphoid enhancer-binding factor 1) (from UniProt Q9UJU2-1 1-399),binding,binds
